# From patent US20160201132A1, “GENE EXPRESSION BIOMARKERS OF LAQUINIMOD RESPONSIVENESS” (Teva Pharmaceutical Industries Ltd., priority 2013, published 2016)
# “And” between values parts separate entries of the source, which are not always exact repeats. Identical values can stand only once. This continues a long series; more values of the same kind are listed elsewhere.
# Tested on: PBMC of RRMS patients
# Test: Gene expression microarray analysis (HG-U133A-2) of PBMC from RRMS patients treated with LAQ, ancillary study to ALLEGRO
# Type: in vivo, human
# Description: The goal of this ancillary study was to characterize gene expression changes and corresponding biological mechanisms induced in PBMC of RRMS patients by LAQ treatment. According to ALLEGRO clinical trial inclusion criteria, 25 patients were randomly assigned to receive LAQ (n=13, age 38.8±2.3 years, female/male ratio: 8/5) or placebo (n=12, age 37.2±3.4 years, female/male ratio: 8/4).
# Peripheral blood samples were obtained from RRMS patients at baseline before start of LAQ treatment or placebo, after 0, 1, 6 and 24 month of treatment (visit 0, 1, 6 and 7 according to ALLEGRO clinical trial protocol correspondently) for gene microarray analysis.
# Briefly, 1) Peripheral blood mononuclear cells (PBMC) were obtained from RRMS patients that participated in ALLEGRO and were treated daily with 0.6 mg LAQ or placebo. PBMC were subjected for gene expression analysis (HU-133A-2-Affymatrix arrays) at baseline and at 1 and 6 months of LAQ treatment; 2) Data was analyzed by Partek Genomics Solution software. Most informative genes (MIGs) were defined as those that differentiated between groups with p<0.01. Gene functional annotation, enrichment and pathway analysis were performed by Ingenuity software. For each time point, genes that changed in placebo group were excluded from further analysis; and 3) Verification of LAQ related mechanism was performed by Western blot.
# PBMC were extracted from 15 ml peripheral blood, separated by Ficoll-Hypaque gradient. Total RNA was extracted using both Trizol (Invitrogen, USA) and Phase-Lock-Gel columns (Eppendorf, Germany) including a DNase digestion step. RNA integrity was assessed by RNA Experion automated electrophoresis system (Bio-Rad Laboratories, Hercules, Calif.).
# Probe synthesis using 3 μg total RNA, hybridization, detection, and scanning was performed according to the standard Affymetrix, Inc. USA protocols; cDNA was synthesized using the Two-Cycle cDNA Synthesis Kit (Affymetrix, Inc., USA), and in-vitro transcription performed with the GeneChip IVT Labeling Kit (Affymetrix, Inc., USA). The biotin-labeled IVT-RNA was hybridized to HG-U133A-2 arrays containing 18,400 gene transcripts, each corresponding to 14,500 well-annotated human genes, washed in a GeneChip Fluidics Station 450 (Hewlett Packard, USA, GeneArray-™ scanner G2500A) and scanned according to the manufacturer's protocol (Affymetrix, Inc., USA).
# Data analysis was performed on Partek Genomics Solution software (www.partek.com; Partek Incorporated, St. Louis, Mo.). Expression values were computed from raw CEL files by applying the Robust Multi-Chip Average (RMA) background correction algorithm. RMA correction included: 1) values background correction; 2) quintile normalization; 3) log 2 transformation; and 4) median polish summarization. The ANOVA, Repeated Measures and correlation analysis implicated in Partek software ware applied to evaluate LAQ effects. Most informative genes MIGs were defined as those that differentiated between experimental groups with p<0.01. All p-values were calculated for False Discovery Rate (FDR) multiple test correction at p=0.05.
# Additionally, significance of individual genes was tested by parametric T-test and non parametric Mann-Whitney test using Bootstrapping approach based on repeated permutations of the data with 5% FDR for multiple testing.
# Gene functional annotation, enrichment, and pathway analyses to identify the leading biological pathways that operated under LAQ treatment were performed by Ingenuity Pathways Analysis software (www.ingenuity.com).
# ANOVA analysis was used to compare PBMC gene expression after 1, 6 or 24 month of LAQ treatment with baseline gene expression.
# For each time point inventors performed analysis source of variation in dataset. (FIG. 1). Age, gender and batch effects were considered as confounders regarding LAQ or Placebo related changes. For each time point genes associated with Placebo effect were evaluated and excluded from further analysis. […]
structure (smiles),measurement,setting,value
"CCN(C(=O)c1c(O)c2c(Cl)cccc2n(C)c1=O)c1ccccc1 [LAQ, 5-chloro-N-ethyl-4-hydroxy-1-methyl-2-oxo-N-phenyl-1,2-dihydroquinoline-3-carboxamide]",Fold-Change (4.0 vs. 0.0),"gene SI, six months of treatment",−1.1522
same,Fold-Change (4.0 vs. 0.0),gene SL1T1,−1.185
same,Fold-Change (4.0 vs. 0.0),"gene SLC6A8, after six months of LAQ",−1.241
same,Fold-Change (4.0 vs. 0.0),"gene SLC6A15, six months of treatment",−1.1479
same,Fold-Change (4.0 vs. 0.0),"gene SLC7A1, after six months of LAQ",−1.29
same,Fold-Change (4.0 vs. 0.0),gene SLC8A2,−1.177
same,Fold-Change (4.0 vs. 0.0),gene SLC9A3,−1.187
same,Fold-Change (4.0 vs. 0.0),"gene SLC9A5, six months of treatment",−1.16
same,Fold-Change (4.0 vs. 0.0),"gene SLC10A2, after six months of LAQ",−1.134
same,Fold-Change (4.0 vs. 0.0),"gene SLC11A2, after six months of LAQ",−1.27
same,Fold-Change (4.0 vs. 0.0),"gene SLC13A2, after six months of LAQ",−1.14
same,Fold-Change (4.0 vs. 0.0),"gene SLC17A1, after six months of LAQ",−1.141
same,Fold-Change (4.0 vs. 0.0),"gene SLC18A3, PBMC, six months of LAQ treatment",−1.111
same,Fold-Change (4.0 vs. 0.0),"gene SLC19A1, after six months of LAQ",−1.268
same,Fold-Change (4.0 vs. 0.0),"gene SLC22A6, after six months of LAQ",−1.14
same,Fold-Change (4.0 vs. 0.0),"gene SLC27A6, PBMC, six months of LAQ treatment",−1.093
same,Fold-Change (4.0 vs. 0.0),"gene SLC37A1, PBMC, six months of LAQ treatment",−1.115
same,Fold-Change (4.0 vs. 0.0),gene SLC45A2,−1.188
same,Fold-Change (4.0 vs. 0.0),"gene SLCO1A2, after six months of LAQ",−1.14
same,Fold-Change (4.0 vs. 0.0),"gene SLCO1B3, PBMC, six months of LAQ treatment",−1.102
same,Fold-Change (4.0 vs. 0.0),"gene SLCO2A1, PBMC, six months of LAQ treatment",−1.121
same,Fold-Change (4.0 vs. 0.0),"gene SMAD3, after six months of LAQ",−1.225
same,Fold-Change (4.0 vs. 0.0),"gene SMAD4, after six months of LAQ",−1.2306
same,Fold-Change (4.0 vs. 0.0),"gene SMAD6, after six months of LAQ",−1.138
same,Fold-Change (4.0 vs. 0.0),"gene SMAD9, after six months of LAQ",−1.1293
same,Fold-Change (4.0 vs. 0.0),"gene SMARCA2, six months of treatment",−1.16
same,Fold-Change (4.0 vs. 0.0),"gene SMOX, after six months of LAQ",−1.34
same,Fold-Change (4.0 vs. 0.0),"gene SMR3A /// SMR3B, six months of treatment",−1.148
same,Fold-Change (4.0 vs. 0.0),"gene SMR3A, after six months of LAQ",−1.138
same,Fold-Change (4.0 vs. 0.0),"gene SNAI2, six months of treatment",−1.157
same,Fold-Change (4.0 vs. 0.0),"gene SNTB2, six months of treatment",−1.144
same,Fold-Change (4.0 vs. 0.0),"gene SNX1, six months of treatment",−1.148
same,Fold-Change (4.0 vs. 0.0),gene SORBS1,−1.191
same,Fold-Change (4.0 vs. 0.0),"gene SOSTDC1, after six months of LAQ",−1.134
same,Fold-Change (4.0 vs. 0.0),"gene SOX11, PBMC, six months of LAQ treatment",−1.109
same,Fold-Change (4.0 vs. 0.0),"gene SOX14, after six months of LAQ",−1.134
same,Fold-Change (4.0 vs. 0.0),"gene SP2, six months of treatment",−1.159
same,Fold-Change (4.0 vs. 0.0),"gene SPAG11A, after six months of LAQ",−1.142
same,Fold-Change (4.0 vs. 0.0),"gene SPAG11B, after six months of LAQ",−1.1317
same,Fold-Change (4.0 vs. 0.0),"gene SPANXB1 /// SPANXB2 /// SPANXF1, six months of treatment",−1.16
same,Fold-Change (4.0 vs. 0.0),"gene SPDEF, after six months of LAQ",−1.138
same,Fold-Change (4.0 vs. 0.0),gene SPINK5,−1.189
same,Fold-Change (4.0 vs. 0.0),"gene SPINLW1, after six months of LAQ",−1.239
same,Fold-Change (4.0 vs. 0.0),"gene SPP2, six months of treatment",−1.16
same,Fold-Change (4.0 vs. 0.0),"gene SPRR1A, after six months of LAQ",−1.133
same,Fold-Change (4.0 vs. 0.0),"gene SPRY1, after six months of LAQ",−1.31
same,Fold-Change (4.0 vs. 0.0),"gene SQSTM1, six months of treatment",−1.146
same,Fold-Change (4.0 vs. 0.0),"gene SRCAP, six months of treatment",−1.159
same,Fold-Change (4.0 vs. 0.0),"gene SRPK1, after six months of LAQ",−1.247
same,Fold-Change (4.0 vs. 0.0),"gene SRPX2, after six months of LAQ",−1.229
same,Fold-Change (4.0 vs. 0.0),gene SSX3,−1.189
same,Fold-Change (4.0 vs. 0.0),"gene SSX3, after six months of LAQ",−1.137
same,Fold-Change (4.0 vs. 0.0),"gene SSX4 /// SSX4B, after six months of LAQ",−1.132
same,Fold-Change (4.0 vs. 0.0),"gene ST6GALNAC5, PBMC, six months of LAQ treatment",−1.119
same,Fold-Change (4.0 vs. 0.0),"gene STAB1, PBMC, six months of LAQ treatment",1.462 and 1.522
same,Fold-Change (4.0 vs. 0.0),"gene STARD8, after six months of LAQ",−1.284
same,Fold-Change (4.0 vs. 0.0),"gene STC1, after six months of LAQ",−1.267
same,Fold-Change (4.0 vs. 0.0),"gene STC1, six months of treatment",−1.159
same,Fold-Change (4.0 vs. 0.0),"gene STS, PBMC, six months of LAQ treatment",−1.122
same,Fold-Change (4.0 vs. 0.0),"gene SULT1C2, after six months of LAQ",−1.137
same,Fold-Change (4.0 vs. 0.0),"gene SULT2A1, PBMC, six months of LAQ treatment",−1.098
same,Fold-Change (4.0 vs. 0.0),"gene SYDE1, six months of treatment",−1.159
same,Fold-Change (4.0 vs. 0.0),"gene SYN1, after six months of LAQ",−1.237
same,Fold-Change (4.0 vs. 0.0),"gene SYNPO2L, PBMC, six months of LAQ treatment",−1.0912
same,Fold-Change (4.0 vs. 0.0),"gene SYT1, six months of treatment",−1.151
same,Fold-Change (4.0 vs. 0.0),"gene SYT5, after six months of LAQ",−1.1399
same,Fold-Change (4.0 vs. 0.0),"gene TAAR5, after six months of LAQ",−1.229
same,Fold-Change (4.0 vs. 0.0),"gene TACR3, six months of treatment",−1.161
same,Fold-Change (4.0 vs. 0.0),"gene TACSTD2, six months of treatment",−1.147
same,Fold-Change (4.0 vs. 0.0),gene TAF1,−1.1905
same,Fold-Change (4.0 vs. 0.0),gene TAF4,−1.188
same,Fold-Change (4.0 vs. 0.0),"gene TAL1, after six months of LAQ",−1.293
same,Fold-Change (4.0 vs. 0.0),"gene TAOK2, six months of treatment",−1.145
same,Fold-Change (4.0 vs. 0.0),"gene TAS2R9, after six months of LAQ",−1.134
same,Fold-Change (4.0 vs. 0.0),"gene TBX2, six months of treatment",−1.145
same,Fold-Change (4.0 vs. 0.0),gene TBX10,−1.19
same,Fold-Change (4.0 vs. 0.0),"gene TCEB3B, after six months of LAQ",−1.13
same,Fold-Change (4.0 vs. 0.0),"gene TCF20, after six months of LAQ",−1.2525
same,Fold-Change (4.0 vs. 0.0),"gene TCL6, after six months of LAQ",−1.127
same,Fold-Change (4.0 vs. 0.0),"gene TEAD4, PBMC, six months of LAQ treatment",−1.111
same,Fold-Change (4.0 vs. 0.0),"gene TEF, after six months of LAQ",−1.135
same,Fold-Change (4.0 vs. 0.0),"gene TEX11, after six months of LAQ",−1.124
